Results reported in PubChem BioAssay AID504444 (National Center for Advancing Translational Sciences (NCATS), 2011).
The whole screen tested about 360,000 compounds, of which about 7,500 (2.1%) were called active. Inconclusive means that the source gave no clear call. Such entries were picked first, then a sample of the others. Calls come from the whole dose curve; as a rule, active = well fitted inhibition curve with a large enough effect; inconclusive = small, poorly fitted or top-dose-only effect, or effect the other way; inactive = flat fitted curve, though single readings scatter. Potencies of inconclusive entries are doubtful fits and often do not repeat.

experiment: Nrf2 qHTS screen for inhibitors; settings: A549 ARE-Fluc reporter, luciferase luminescence, 18-24 h; activity change, negative = inhibition: at 46 µM (top of the series); note: nearly all actives have a fitted effect of over 60% in size
Outline: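 Quantitative HTS in A549 cells stably bearing an antioxidant response element-firefly luciferase construct. Inhibition of Nrf2-driven transcription was scored by luminescence after 18-24 h of compound exposure at 37 °C.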
% is set by controls: 0 for no effect and ±100 for the full control effect; potency is the fitted concentration of half-maximal effect.

Structure (SMILES)	activity change, negative = inhibition	Potency
CC(=O)N1CCN(Cc2nc3cc(NC(=O)c4ccccc4Cl)ccc3n2C)CC1	inactive: -25.2%	–
CC(=O)CSc1nc2c(c(=O)[nH]c(=O)n2C)n1Cc1cccc(Br)c1	–	inconclusive: 18.4 µM [falling, single point]
COc1ccc(-c2nc(Cn3c(=O)cc(C)c4c(C)nn(-c5ccccc5)c43)c(C)o2)cc1OC	–	inconclusive: 29.1 µM [activator, single point]
COc1ccc(C(=O)Nc2oc(-c3ccccc3)c(-c3ccccc3)c2C#N)cc1	–	inconclusive: 29.1 µM [falling, single point]
Nc1c(C(=O)Nc2ccccc2Br)sc2nc(-c3cccs3)ccc12	inactive: 5.58%	–
CS(=O)(=O)c1ccc(-c2nnc(NC(=O)c3cccc(N4C(=O)CCC4=O)c3)o2)cc1	–	inconclusive: 8.2 µM [falling, partial curve, poor fit]
CC1=NN(c2ccc([N+](=O)[O-])cc2)C(=O)/C1=C\N(C)C	inactive: 28.2%	–
O=C(NCc1ccccc1F)C1CCN(C(=O)NCc2ccccc2)CC1	inactive: -12.1%	–
Cc1ccc(NC(=O)NC(=S)NC(=O)c2ccccc2)cc1	–	inconclusive: 16.4 µM [activator, partial curve, poor fit]
Cc1cc(NC(=O)N2CCC(CN3CCCCCC3)CC2)ccc1Br	–	inconclusive: 20.6 µM [activator, single point]
COc1cccc(NC(=O)c2c(C)nn(-c3cccc(C)c3)c2-n2cccc2)c1	–	inconclusive: 25.9 µM [falling, single point]
CCCCCCCCC(=O)NNC(=O)c1c(O)c2ccccc2n(CC)c1=O	–	inconclusive: 18.4 µM [falling, single point]
O=C(Cn1ccc2cc(S(=O)(=O)N3CCCCCC3)ccc21)NCc1ccccc1Cl	–	inconclusive: 29.1 µM [falling, single point]
COc1ccc([N+](=O)[O-])cc1NC(=O)CSc1ccccc1	–	inconclusive: 8.2 µM [falling, partial curve, poor fit]
Clc1ccc(Oc2nnnn2-c2ccccc2)cc1	–	inconclusive: 14.6 µM [activator, partial curve, poor fit]
O=C(CC(=O)c1ccccc1)c1ccccc1	inactive: -9.62%	–
Cc1ccc(C)c(S(=O)(=O)Nc2ccc(O)c3ccccc23)c1	inactive: 0.0975%	–
Cc1sc2ncnc(N3CCC(C(=O)NNC(=O)COc4cccc(C(F)(F)F)c4)CC3)c2c1C	–	inconclusive: 29.1 µM [falling, single point]
Cc1ccc(CNC(=O)CN2C(=O)CSc3ccc(S(=O)(=O)N4CCCCC4)cc32)cc1	inactive: -6.63%	–

Whole records from above.
COc1cccc(NC(=O)c2c(C)nn(-c3cccc(C)c3)c2-n2cccc2)c1 as listed: Potency: inconclusive: 25.9 µM [falling, single point]
O=C(NCc1ccccc1F)C1CCN(C(=O)NCc2ccccc2)CC1 as listed: activity change, negative = inhibition: inactive: -12.1%
